In publication PMC4738315, “How to unveil self-quenched fluorophores and subsequently map the subcellular distribution of exogenous peptides” (Scientific Reports, 2016):

Experiments:
Caco-2 cells = assay: CLSM subcellular distribution in living Caco-2 cells; format: cell-based, human; settings: undifferentiated Caco-2 cells (Fig. 5), 60 min, Opti-MEM
MA-104 cells = assay: CLSM subcellular distribution in living MA-104 cells; format: cell-based, monkey; settings: 10 min, 20 μM total Arg9, 3 to 10% or 100% fluorescein-labeled, Opti-MEM

Substance: Ac-K(Fluo)RRRRRRRRR-NH2 [Fluo-Arg9, Arg9 labeled with fluorescein on the side chain of an extra N-terminal lysine]
- Colocalization of CPP fluorescence with lysotracker (Caco-2 cells; 10% dilution (2 μM Fluo-Arg9 plus 18 μM Arg9)): strong colocalization
- Colocalization of CPP fluorescence with lysotracker (Caco-2 cells; 100% Fluo-Arg9 (20 μM)): never colocalized

Substance: RRRRRRRRR [Arg9, nona-arginine, nona-arginine cell-penetrating peptide, reference compound]
- Targeting of mitochondria (colocalization with mitotracker) (MA-104 cells): not targeted
